PubChem BioAssay AID1159578, Peter MacCallum Cancer Centre – 2015
Aim: 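Genome-wide hunt for genes controlling movement of lymphatic endothelial cells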 (primary screen). Cell system: human lymphatic endothelial cells. Reagents: siRNA pool against human genes, 40 nM. Timing: 48 h after transfection. Detection: 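High-content imaging of dye-stained cells in a scratch assay measures filled wound area and nuclei per well; duplicate means given as ratio to mock and robust z-score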. Reading the numbers: migration robust z-score: higher = faster migration into the scratch; nuclei per well: higher = more cells in the well. Active means: 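Pools averaging fewer than 3300 nuclei are never called; remaining pools count as changed when migration robust z lies outside -2 to 2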. Meaning of the calls: active = migration changed; inactive = no migration change, or too few cells.
The deposit covers about 18,000 reagents; shown is an unselected part. About 1,030 of all reagents (5.7%) count as active. 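Inactive calls also include pools with fewer than 3300 nuclei, whose migration was not assessed.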 Raw values are not corrected between plates. A number with no mark means an inactive call. Further read-outs or replicates are left out here.

target | PubChem SID | migration robust z-score | nuclei per well, duplicate mean
CATSPERE (GeneID 257044) | SID255364547 | 0.13 | 6030
TSPAN18 (GeneID 90139) | SID255361787 | -0.54 | 5402
PRKCSH (GeneID 5589) | SID255351806 | -0.5 | 4140
CHRNA1 (GeneID 1134) | SID255348918 | -0.34 | 4540
MKNK1 (GeneID 8569) | SID255353657 | -0.73 | 5247
KRTAP1-1 (GeneID 81851) | SID255360964 | 0.25 | 6083
IGF2BP1 (GeneID 10642) | SID255355251 | -1.2 | 5916
ASIP (GeneID 434) | SID255348422 | 0.19 | 4842
EGFL7 (GeneID 51162) | SID255357527 | -1.21 | 4440
ZNF420 (GeneID 147923) | SID255363351 | 0.52 | 6624
BTNL3 (GeneID 10917) | SID255355444 | 0.31 | 5756
MARCHF8 (GeneID 220972) | SID255364258 | 0.08 | 5630
DEFA3 (GeneID 1668) | SID255349280 | -4.23 (active) | 5398
GPR20 (GeneID 2843) | SID255349993 | -1.15 | 4879
BLZF1 (GeneID 8548) | SID255353639 | 0.05 | 6088
TSPAN15 (GeneID 23555) | SID255356327 | -0.3 | 6770
ICAM1 (GeneID 3383) | SID255350373 | 0.75 | 4444
LDB1 (GeneID 8861) | SID255353874 | 0.08 | 6748
NUP93 (GeneID 9688) | SID255354473 | -0.24 | 5658
UNC119 (GeneID 9094) | SID255354029 | 1.37 | 6174
SPANXB1 (GeneID 728695) | SID255359959 | -0.02 | 5723
SPANXB1 (GeneID 728695) | SID255366193 | -1.14 | 4120
MRGPRF (GeneID 116535) | SID255364213 | -0.02 | 5222
ACTRT1 (GeneID 139741) | SID255363085 | 0.82 | 5700
OR1J1 (GeneID 347168) | SID255365214 | -1.24 | 5800
NPHP3 (GeneID 27031) | SID255356883 | -0.54 | 5112
SNX3 (GeneID 8724) | SID255353766 | -1.84 | 5074
NLRP1 (GeneID 22861) | SID255355823 | 0.76 | 5946
IRX2 (GeneID 153572) | SID255363569 | -0.07 | 4914
GSTCD (GeneID 79807) | SID255360478 | 2.11 (active) | 6958
CHST15 (GeneID 51363) | SID255357676 | 1.06 | 5198
IRF2BP1 (GeneID 26145) | SID255356686 | 0.24 | 4834
DAGLB (GeneID 221955) | SID255364328 | 0.54 | 5686
AP1B1 (GeneID 162) | SID255348223 | -1.5 | 4849
STN1 (GeneID 79991) | SID255360614 | 1 | 6692

7 successive records from above, quoted:
target | PubChem SID | migration robust z-score | nuclei per well, duplicate mean
ICAM1 (GeneID 3383) | SID255350373 | 0.75 | 4444
LDB1 (GeneID 8861) | SID255353874 | 0.08 | 6748
NUP93 (GeneID 9688) | SID255354473 | -0.24 | 5658
UNC119 (GeneID 9094) | SID255354029 | 1.37 | 6174
SPANXB1 (GeneID 728695) | SID255359959 | -0.02 | 5723
SPANXB1 (GeneID 728695) | SID255366193 | -1.14 | 4120
MRGPRF (GeneID 116535) | SID255364213 | -0.02 | 5222

Further reagents follow:
target | PubChem SID | migration robust z-score | nuclei per well, duplicate mean
CIITA (GeneID 4261) | SID255350963 | 0.1 | 6893
ZDHHC23 (GeneID 254887) | SID255364471 | 0.58 | 5052
TNPO1 (GeneID 3842) | SID255350673 | -0.8 | 5473
LDB2 (GeneID 9079) | SID255354016 | -0.72 | 6446
CAMSAP1 (GeneID 157922) | SID255363642 | -0.49 | 5972
FGL1 (GeneID 2267) | SID255349686 | -0.3 | 4580
H1-6 (GeneID 3010) | SID255350128 | -0.2 | 5565
LCLAT1 (GeneID 253558) | SID255364422 | 0.75 | 6450
TMEM167A (GeneID 153339) | SID255363561 | 0.29 | 3917
GABARAPL1 (GeneID 23710) | SID255356410 | -1.6 | 4736
IFNW1 (GeneID 3467) | SID255350419 | -0.2 | 5688
NIPAL3 (GeneID 57185) | SID255359327 | 1.19 | 6883
STIP1 (GeneID 10963) | SID255355484 | -0.38 | 7292
HNRNPH2 (GeneID 3188) | SID255350250 | -0.92 | 5199
PDS5A (GeneID 23244) | SID255356100 | 0.9 | 6494
ZNF629 (GeneID 23361) | SID255356184 | 0.96 | 5888
CGB3 (GeneID 1082) | SID255348885 | 1.07 | 5647
SEMA3E (GeneID 9723) | SID255354500 | 1.21 | 5744
DECR2 (GeneID 26063) | SID255356649 | 0.39 | 4972
C2CD4B (GeneID 388125) | SID255365471 | -0.52 | 6204
GC (GeneID 2638) | SID255349848 | -0.06 | 5473
MLLT11 (GeneID 10962) | SID255355483 | -0.8 | 5672
